Measurements as given in patent US12459973B2, “Peptide compounds for reducing side effects of CB1 receptor agonists” (priority 2019, dated 2025).
Part of at least one peptide drawing is inferred or uncertain, most often the ends. Non-standard residues stand in square brackets, D forms with d. Residues, ends and D or L forms follow the SMILES beside them.

Chains of the proteins cited; added tags and fusions are not shown.
UniProt P28223, whole entry: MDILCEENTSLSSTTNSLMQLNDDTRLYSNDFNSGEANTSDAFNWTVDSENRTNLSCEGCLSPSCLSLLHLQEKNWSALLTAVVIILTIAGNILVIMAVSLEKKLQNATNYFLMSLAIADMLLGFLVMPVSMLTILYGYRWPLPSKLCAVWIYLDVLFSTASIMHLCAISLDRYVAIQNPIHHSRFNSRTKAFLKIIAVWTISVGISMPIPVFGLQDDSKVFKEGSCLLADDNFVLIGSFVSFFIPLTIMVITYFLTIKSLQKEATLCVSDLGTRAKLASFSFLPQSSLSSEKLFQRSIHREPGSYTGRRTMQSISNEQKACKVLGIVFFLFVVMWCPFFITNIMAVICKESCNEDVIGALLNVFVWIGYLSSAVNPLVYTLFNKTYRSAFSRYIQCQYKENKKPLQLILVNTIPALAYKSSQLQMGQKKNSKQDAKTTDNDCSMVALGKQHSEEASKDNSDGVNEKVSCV

How the values were obtained:
[1] = biological target: T1, CB1R and 5-HT2AR heteromers (Homo sapiens, UniProt P28223); test: Disruption of CB1R and 5-HT2AR heteromers by bimolecular fluorescence complementation; assay type: cell-based; conditions: HEK-293T, CB1R-nYFP + 5-HT2AR-cYFP, peptide 4 μM, 4 h, 37° C.
T1 construct: expressed in transfected cells; host or cells: HEK-293T
Description: The method described in “Viñals* X, Moreno* E, Lanfumey L, Cordomi A, Pastor A, de La Torre R, Gasperini P, Navarro G, Howell L A, Pardo L, Lluís C, Canela El, McCormick* P J, Maldonado* R, Robledo* P. Cognitive Impairment Induced by Delta9-tetrahydrocannabinol Occurs through Heteromers between Cannabinoid CB1 and Serotonin 5-HT2A Receptors. PLoS Biology, 13(7): e1002194 (2015)” was used with the slight modifications herein described herein to determine the in vitro capacity of the peptides to disrupt CB1R and 5-HT2AR heteromers. […]
After 48 h, cells were treated or not with the indicated TAT-peptides (4 μM) for 4 h at 37° C. To quantify the complemented YFP Venus expression, cells were washed twice in quick succession in HBSS with 10 mM glucose, detached, and resuspended in the same buffer. To control the cell number, sample protein concentration was determined using a Bradford assay kit (Bio-Rad, Munich, Germany) using bovine serum albumin dilutions as standards. 20 μg protein were distributed into 96-well microplates (black plates with a transparent bottom, Porvair, King's Lynn, UK), and fluorescence emission at 530 nm after the excitation at 500 nm with a Mithras LB940 (Berthold Technologies, Bad Wildbad, Germany) was recorded. Protein fluorescence was determined as fluorescence of the sample minus the fluorescence of untransfected cells (basal).

[2] = Hot plate test (analgesic effect); assay type: in vivo; conditions: mice; for Jumping latency % increase vs control / Licking latency % increase vs control: hot plate 52° C.
Description: The method described in “Monory K, Blaudzun H, Massa F, Kaiser N, Lemberger T, Schütz G, Wotjak C T, Lutz B*, Marsicano G*. Genetic Dissection of Behavioural and Autonomic Effects of D9-tetrahydrocannabinol in Mice. PLoS Biology, 5(10): e269, 2007” was used with the slight modifications herein described to assess the analgesic effect of the peptides.
THC-induced analgesia was measured using a hot plate analgesia meter (Hot/Cold Plate Test, Bioseb, USA) 60 min after intraperitoneal injection (IP) of THC dissolved in an IP vehicle (5% v/v of ethanol, 5% v/v of Cremophor-EL and 90% v/v saline) or injection of the vehicle (saline plus 2% DMSO) alone and by intravenous injection 90 min after the first injection of the peptide to be tested in an IV vehicle or of the vehicle alone. […] A cut-off time of 240 s was set to prevent tissue damage.

[3] = Novel object recognition test (memory); assay type: in vivo; conditions: co-administration with THC, mice
Description: The method described in “Puighermanal E, Marsicano G, Busquets-Garcia A, Lutz B, Maldonado R, Ozaita A. Cannabinoid modulation of hippocampal long-term memory is mediated by mTOR signaling. Nature Neuroscience, 12(9): 1152-8 (2009)” was used with the slight modifications herein described to assess the effect of the peptides on memory.
On day 1 (Habituation), mice were habituated for 9 min to the V-maze in which the task was performed. On the second day (Training), mice were put back in the V-maze for 9 min, two identical objects were presented and the time that the mice spent exploring each object was recorded. The mice were again placed in the maze 24 h later for 9 min (Test), one of the familiar objects was replaced with a novel object and the total time spent exploring each of the two objects (novel and familiar) was computed. Object exploration was defined as the orientation of the nose to the object at less than 2 cm. A discrimination index was calculated as the difference between the times spent exploring the novel or familiar object divided by the total time exploring the two objects. A higher discrimination index is considered to reflect greater memory retention for the familiar object as normal mice spend more time exploring a novel object than a familiar one. […]

[4] = Cpd Ex. 1 20 mg/kg + Vehicle (IP)
[5] = Cpd Ex. 1 20 mg/kg co-administered with THC 10 mg/kg

CC[C@@H](C)[C@@H](NC(=O)CNC(=O)[C@@H](C)NC(=O)[C@H](NC(=O)[C@@H](Cc1ccc(O)cc1)NC(=O)[C@@H](C)NC(=O)[C@@H](Cc1ccc(O)cc1)NC(=O)[C@@H](CCSC)NC(=O)[C@@H](Cc1ccc(O)cc1)NC(=O)[C@H](NC(=O)[C@@H](CC(C)C)NC(=O)[C@H](N)Cc1c[nH]c2ccccc12)[C@H](C)CC)C(C)C)C(=O)N[C@H](CC(C)C)C(=O)N[C@H](CCCCN)C(=O)N[C@H](CCCNC(=N)N)C(=O)N[C@H](Cc1c[nH]c2ccccc12)C(N)=O [Example 1, D-Trp-D-Leu-D-Ile-D-Tyr-D-Met-D-Tyr-D-Ala-D-Tyr-D-Val-D-Ala-Gly-D-Ile-D-Leu-D-Lys-D-Arg-D-Trp-NH2] (H-[dW][dL][dI][dY][dM][dY][dA][dY][dV][dA]G[dI][dL][dK][dR][dW]-NH2)
Fluorescense units (bimolecular fluorescence complementation) [1]: 10637 fluorescence units
Jumping latency % increase vs control [2, 4]: 10.4%
Licking latency % increase vs control [2, 4]: 33.9%
Jumping latency % increase vs control [2, 5]: 31.3%
Licking latency % increase vs control [2, 5]: 80.9%
analgesic effect on coadministration with THC (in words) ([2]; coadministration with THC): substantial analgesic effect
effect on THC-induced memory impairment (in words) [3]: overturns the detrimental effect of THC on memory
